Experimental data from article PMC12848717, “Discovery of Encrypted Peptides in a Human Matrix Metallopeptidase” (JACS Au, 2025).

Test system: A. baumannii ATCC 19606
Conditions: serial exposure at MIC/2

O=C(O)c1cn(C2CC2)c2cc(N3CCNCC3)c(F)cc2c1=O [Ciprofloxacin]
increase of MIC over 21 days of exposure: 16 fold
